Assay results: the supplement of paper PMC3334620
Over roughly 33,000 sequences, “E-score (-0.5 to 0.5)” has its median near -0.016; the highest 2% begin near 0.3. Some of the results follow.

Molecular target: T1, Yer184c (UniProt P39961)
T1 sequence: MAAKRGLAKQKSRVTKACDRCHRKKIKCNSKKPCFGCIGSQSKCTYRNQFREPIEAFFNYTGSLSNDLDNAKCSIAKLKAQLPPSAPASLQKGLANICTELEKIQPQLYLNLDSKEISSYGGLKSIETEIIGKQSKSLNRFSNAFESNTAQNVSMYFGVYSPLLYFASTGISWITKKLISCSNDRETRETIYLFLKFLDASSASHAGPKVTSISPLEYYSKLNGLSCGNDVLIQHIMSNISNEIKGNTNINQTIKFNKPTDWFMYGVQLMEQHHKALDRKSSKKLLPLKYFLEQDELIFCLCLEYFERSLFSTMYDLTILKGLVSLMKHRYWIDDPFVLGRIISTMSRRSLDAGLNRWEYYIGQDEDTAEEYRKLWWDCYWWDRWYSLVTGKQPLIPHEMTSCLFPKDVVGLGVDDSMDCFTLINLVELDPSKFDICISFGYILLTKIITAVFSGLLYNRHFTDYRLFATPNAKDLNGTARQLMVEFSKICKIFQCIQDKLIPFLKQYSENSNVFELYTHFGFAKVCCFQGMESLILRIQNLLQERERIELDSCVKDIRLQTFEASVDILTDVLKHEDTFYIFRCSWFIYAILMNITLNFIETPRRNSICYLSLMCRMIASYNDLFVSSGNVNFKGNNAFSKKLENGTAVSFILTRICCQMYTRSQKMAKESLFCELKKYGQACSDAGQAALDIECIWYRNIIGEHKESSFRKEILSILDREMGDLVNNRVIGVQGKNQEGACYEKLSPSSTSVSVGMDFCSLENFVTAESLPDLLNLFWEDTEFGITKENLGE
Experiment: PBM E-score (8-mer binding enrichment) (E-score (-0.5 to 0.5)); higher = stronger / more preferred TF binding
Settings: protein concentration: 100 nM; construct: GST-full length
Outline: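 Detection of bound protein used fluorescent anti-GST, with scans normalised by masliner. The proteins were GST-tagged yeast transcription factors applied at about 100-200 nM to universal all-10-mer Agilent arrays made double-stranded by primer extension. Each ungapped eight-base word, pooled with its reverse complement, was scored with an E-score from the Universal PBM Analysis Suite.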

Compared with GATACAAA, AAAGACGT is lower in “PBM E-score” value: 0.174 for the first, 0.0193 for the second.

Going from CATGGTAG to CAGCGGGG, the “PBM E-score” value rises from -0.188 to -0.121.

Compared with ACAGCAAC, GTTTCCTA is lower in “PBM E-score” value: 0.197 for the first, 0.0325 for the second.

Compared with ATCCTAAG, AAAACGGA is higher in “PBM E-score” value: -0.0922 for the first, 0.205 for the second.

First: CGTATCAC
Second: CATTGTAC
The “PBM E-score” value of the first is lower: -0.102 for the first, -0.0961 for the second.

First: GATGGAAC
Second: GCCTAGTA
The “PBM E-score” value of the first is higher: 0.0222 for the first, -0.0825 for the second.

Compared with AGAGTTAC, CATTATAA is higher in “PBM E-score” value: -0.149 for the first, 0.178 for the second.

Compared with AATGTTTG, AAGCATAG is lower in “PBM E-score” value: -0.0449 for the first, -0.161 for the second.

Going from ACAGTTGG to CATCATAC, the “PBM E-score” value rises from -0.127 to 0.224.

Going from GACTGAGC to ATTATCGA, the “PBM E-score” value rises from -0.166 to 0.0479.

Going from GGGGTCGA to ATATCGAG, the “PBM E-score” value rises from -0.22 to 0.0115.

First: ACGAAGCA
Second: AATGCTCT
The “PBM E-score” value of the first is higher: -0.13 for the first, -0.167 for the second.

First: CCCTCCTA
Second: GCAAATAC
The “PBM E-score” value of the first is lower: -0.122 for the first, -0.0215 for the second.

Going from GAGGGTCA to GTACATGA, the “PBM E-score” value rises from -0.132 to -0.0374.

Compared with CTGGCATA, TCTAGTCA is lower in “PBM E-score” value: -0.00554 for the first, -0.0786 for the second.

First: CACCACGC
Second: CAACGAGG
The “PBM E-score” value of the first is lower: -0.284 for the first, -0.116 for the second.

Compared with CATAAGCC, CCGCGGTA is higher in “PBM E-score” value: -0.0497 for the first, 0.345 for the second.

First: CAACGAGA
Second: GCTCTTAC
The “PBM E-score” value of the first is lower: 0.0677 for the first, 0.0833 for the second.

First: TGCTCAAA
Second: CAATATTG
The “PBM E-score” value of the first is lower: 0.0714 for the first, 0.178 for the second.

Going from AGATTCAA to CGGGGCCC, the “PBM E-score” value falls from 0.137 to 0.0621.

Going from AATTGTCA to ACCGATTG, the “PBM E-score” value rises from 0.0273 to 0.191.

Compared with TAGACAGA, AACATGCT is lower in “PBM E-score” value: 0.063 for the first, -0.045 for the second.

First: GTAACGAA
Second: CCCATACG
The “PBM E-score” value of the first is higher: 0.123 for the first, -0.26 for the second.

Going from CGTATGCA to CAGCCAGA, the “PBM E-score” value falls from 0.00517 to -0.0598.

Going from GAAAGCTC to AAAAGAGT, the “PBM E-score” value rises from -0.0804 to -0.0099.

Going from AGAGAGGC to CTTGATCC, the “PBM E-score” value rises from -0.282 to -0.0455.

Compared with AAATGGTA, AAAATGCC is higher in “PBM E-score” value: 0.0972 for the first, 0.161 for the second.

First: CCTTAGAA
Second: GTTCACAA
The “PBM E-score” value of the first is lower: -0.0538 for the first, 0.144 for the second.

First: ACTGATAC
Second: CGGAAGGA
The “PBM E-score” value of the first is lower: -0.0357 for the first, 0.23 for the second.

Compared with ATTGACAC, GCTCGCCC is higher in “PBM E-score” value: -0.158 for the first, -0.103 for the second.

Compared with AAATCTGC, ATGGTTCA is higher in “PBM E-score” value: -0.0007 for the first, 0.0406 for the second.

Going from CTAGCATA to GATAACTA, the “PBM E-score” value rises from -0.00397 to 0.0562.

First: AACCCGTA
Second: AAGGAGTC
The “PBM E-score” value of the first is higher: -0.0462 for the first, -0.165 for the second.

Going from CTGAGCGC to CGTCCGGC, the “PBM E-score” value rises from -0.0621 to 0.296.

Going from CCGGTTCA to AAACCGGT, the “PBM E-score” value rises from 0.0944 to 0.216.

Going from GCGGTCCA to GAGGTCAA, the “PBM E-score” value falls from -0.116 to -0.117.

Compared with ATCCAACC, GAAGAGGC is higher in “PBM E-score” value: -0.124 for the first, -0.0568 for the second.

Going from AGCGTAGG to GCTGAGAC, the “PBM E-score” value rises from -0.167 to 0.127.

Going from CGAGCTAA to AGGCCTAT, the “PBM E-score” value falls from 0.0895 to -0.0243.

Going from GCTAATGA to GATGCAAA, the “PBM E-score” value rises from -0.11 to -0.00873.

Compared with GGCGTGAC, GATGCCGA is higher in “PBM E-score” value: 0.058 for the first, 0.319 for the second.

Compared with AACATCCT, GCTGGAGA is lower in “PBM E-score” value: -0.0642 for the first, -0.2 for the second.

First: AGACGGCT
Second: GCCGGGTA
The “PBM E-score” value of the first is lower: 0.0132 for the first, 0.107 for the second.

Going from ACACTTGC to GTATAACA, the “PBM E-score” value rises from -0.0473 to 0.166.

Compared with ATACTCAG, CCATGATA is lower in “PBM E-score” value: 0.145 for the first, -0.088 for the second.

Compared with AGAGACCT, ACATAAGC is higher in “PBM E-score” value: -0.186 for the first, -0.0118 for the second.

Going from GTGCACCA to CATCTAGA, the “PBM E-score” value rises from -0.0592 to 0.0183.

Compared with TGTTAACA, ACTTTTAG is lower in “PBM E-score” value: 0.111 for the first, 0.05 for the second.

First: GCTAGGAC
Second: TCCCTCAA
The “PBM E-score” value of the first is higher: -0.0463 for the first, -0.1 for the second.

Going from GATTCGGA to ACGTGTCG, the “PBM E-score” value falls from 0.329 to -0.125.

Going from CATTGGCC to ATGGTCGC, the “PBM E-score” value rises from -0.161 to -0.0296.

Compared with GGATATAA, CCTACCCA is lower in “PBM E-score” value: 0.29 for the first, -0.257 for the second.

Compared with GCTGCGAA, CGACACAA is lower in “PBM E-score” value: 0.0893 for the first, -0.11 for the second.

Going from ACACAGCC to GGTTCTTA, the “PBM E-score” value falls from 0.045 to -0.0176.

Going from AGATCACT to CAGATAGC, the “PBM E-score” value falls from 0.0556 to -0.105.

Compared with GGCCGGGA, TACGTCTA is lower in “PBM E-score” value: 0.292 for the first, -0.127 for the second.

Going from AGGTCGTC to AATCACAT, the “PBM E-score” value rises from -0.136 to -0.0341.

Compared with AAGTACTT, GCCTCGGA is higher in “PBM E-score” value: -0.0298 for the first, 0.108 for the second.

First: ACACACAT
Second: GACTCTCA
The “PBM E-score” value of the first is higher: 0.0928 for the first, -0.182 for the second.

First: CAGTTGAG
Second: CCAGACTC
The “PBM E-score” value of the first is lower: -0.238 for the first, -0.146 for the second.

Going from GTATGGTA to TATAGTCA, the “PBM E-score” value rises from -0.0442 to 0.0719.

Compared with AAGCTGAG, CTAAGAGA is lower in “PBM E-score” value: 0.0292 for the first, -0.0544 for the second.

Compared with CGAGAACC, CCCCTAGG is lower in “PBM E-score” value: 0.158 for the first, -0.349 for the second.

Compared with GAGAGCAC, GACAGTAC is higher in “PBM E-score” value: -0.14 for the first, 0.135 for the second.

First: GCAGAAAC
Second: AGATCGCG
The “PBM E-score” value of the first is higher: 0.172 for the first, 0.07 for the second.

Going from AAGTTACG to ACTAAAAG, the “PBM E-score” value rises from 0.0648 to 0.139.

Compared with GACACGCA, GCTAGATA is lower in “PBM E-score” value: 0.0313 for the first, 0.00682 for the second.

First: CACCACTA
Second: GTAGATAC
The “PBM E-score” value of the first is lower: -0.0564 for the first, 0.043 for the second.

Going from CAGGACCC to CGCAGTGA, the “PBM E-score” value rises from -0.164 to -0.0244.

First: ATTGTAAC
Second: CCAGGACG
The “PBM E-score” value of the first is higher: 0.101 for the first, -0.121 for the second.

First: GCAGGTCC
Second: CCACGAAC
The “PBM E-score” value of the first is lower: -0.0921 for the first, 0.0982 for the second.

Compared with ACATGACG, GAATCTAC is higher in “PBM E-score” value: -0.118 for the first, 0.0543 for the second.

Going from CTTAGTTC to ACCGTTCT, the “PBM E-score” value falls from 0.125 to -0.0197.

First: AAGACGGC
Second: GAGTGCAA
The “PBM E-score” value of the first is lower: 0.0294 for the first, 0.0952 for the second.

Compared with TCAAAGGA, ACCACAGT is higher in “PBM E-score” value: -0.113 for the first, 0.00697 for the second.

Compared with CGCAATGC, ATGTTATG is higher in “PBM E-score” value: -0.0706 for the first, 0.0758 for the second.

Compared with ATTCACAG, ATGAGAGG is lower in “PBM E-score” value: 0.12 for the first, -0.341 for the second.

Going from AGCCCGTA to ACGAAGAA, the “PBM E-score” value rises from -0.276 to 0.258.

AGAGCTTG and GTACGATA are the same in “PBM E-score” value: -0.122 for the first, -0.122 for the second.

Going from GCCACTCC to AACGTTTA, the “PBM E-score” value rises from -0.0873 to -0.0445.

First: ACGCCGGA
Second: ACGGAATA
The “PBM E-score” value of the first is lower: 0.227 for the first, 0.321 for the second.

Compared with CCCGTCGC, AAACACCC is higher in “PBM E-score” value: -0.117 for the first, 0.0378 for the second.

First: CAAAATTA
Second: CCCCAAGG
The “PBM E-score” value of the first is higher: 0.212 for the first, -0.381 for the second.

Going from CTGCTTCA to CGTCATAA, the “PBM E-score” value rises from -0.155 to 0.0537.

Compared with AAACATGT, CCAACTGA is lower in “PBM E-score” value: 0.17 for the first, -0.105 for the second.

First: AAATCCAC
Second: GTTGCACA
The “PBM E-score” value of the first is lower: -0.0363 for the first, 0.0652 for the second.
